Values quoted from earlier work in patent publication US11020416B2, “Cancer chemotherapy employing halogenated analogs of thymidine” (priority 2015, dated 2021).
Some of these results come from one statement about several compounds together.

Conditions: after infusion of bromodeoxyuridine / iododeoxyuridine; cited from earlier work

Question: Which “catabolite concentration in patient plasma relative to parent drug” value does the source give for `O=c1[nH]cc(I)c(=O)[nH]1` [Iodouracil, 5-iodouracil] here?
Answer: ≤ 100 times
